Data from PubChem BioAssay AID1347075 (National Center for Advancing Translational Sciences (NCATS), 2019).
Hit rate of the full screen: of about 400,000 compounds, about 5,500 (1.4%) were called active. This list was built around the results that the source calls inconclusive (neither active nor inactive); the mix of calls is not that of the screen. Calls follow the shape of the dose curve; as a rule, active = well fitted cell-killing curve with a large enough effect; inconclusive = small, poorly fitted or top-dose-only effect, or effect the other way; inactive = flat fitted curve, though single readings scatter. Where the call is inconclusive, the potency comes from a doubtful curve fit.

test: qHTS assay for MDR1-selective chemotherapeutics: Primary screen using the parental adenocarcinoma cell KB-3-1; conditions: KB-3-1 viability, CellTiter-Glo ATP luminescence, 72 h; activity change, negative = cytotoxic: at 46.1 µM (top of the series); also: nearly all actives have a fitted effect of over 60% in size
Outline: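 KB-3-1 parental drug-naive adenocarcinoma cells in DMEM/10% FBS, incubated 72 h at 37 C with pin-transferred compounds across a concentration series. Viability by CellTiter-Glo luminescence; concentration-response curves fitted after normalization.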
% is scaled to controls: 0 for no effect and ±100 for the full control effect; potency is read from the fitted curve at half-maximal effect.

Structure (SMILES) | Potency | activity change, negative = cytotoxic
Cc1[nH]c2ccccc2c1C(=O)C(=O)N1CCN(c2cccc(Cl)c2)CC1 | inconclusive: 18.4 µM [cytotoxic, single point] | –
Cc1cc(Br)ccc1OCC(=O)N(Cc1nc(-c2ccccc2)no1)C(C)C | inconclusive: 18.4 µM [cytotoxic, partial curve, poor fit] | –
OCc1ccccc1-c1cccc2nccn12 | – | inactive: 0%
O=C(CSc1nnc(NC(=O)c2ccco2)s1)NC1CCCC1 | inconclusive: 23.1 µM [rising, single point] | –
Cc1[nH]n(-c2ccc(Cl)cc2)c(=O)c1N=Nc1cccnc1 | inconclusive: 29.1 µM [cytotoxic, single point] | –
O=S(=O)(c1cccc(-c2nc3ccccc3s2)c1)N1CCOCC1 | inconclusive: 29.1 µM [cytotoxic, single point] | –
Clc1ccccc1N1CCN(Cc2c[nH]c3ccccc23)CC1 | inconclusive: 29.1 µM [cytotoxic, single point] | –
Cc1cc(C2(c3ccc(O)c(C)c3)C(=O)Nc3ccccc32)ccc1O | inconclusive: 13 µM [cytotoxic, partial curve, poor fit] | –
COc1cccc(-n2sc3c(c2=S)-c2cc(OC)ccc2NC3(C)C)c1 | inconclusive: 23.1 µM [cytotoxic, single point] | –
CCCCOP(=O)(OCCCC)C(Nc1ccccc1)c1ccc2c(c1)OCO2 (configuration not stated) | inconclusive: 29.1 µM [cytotoxic, single point] | –
CCc1c(C)nc2ncnn2c1NCCc1ccc(OC)cc1 | active: 5.62 µM | –
CCOCCCNC(=O)/C(C#N)=C/c1cc(Br)c(O)c(Br)c1 | active: 6.51 µM | –
CCOC(=O)C1=CCC(c2ccccc2C(F)(F)F)N(S(=O)(=O)c2ccc(C)cc2)C1 (configuration not stated) | inconclusive: 29.1 µM [cytotoxic, single point] | –
Cn1c(CCNC(=O)c2ccc(Cl)c(Cl)c2)nnc1SCc1ccc(Cl)c(Cl)c1 | inconclusive: 23.1 µM [cytotoxic, single point] | –
C1=Nc2ccccc2/C1=C/c1c[nH]c2ccccc12 | inconclusive: 0.326 µM [rising, full curve] | –
CCC(CC)C(=O)N1CCN(c2cccc(C)c2C)CC1 | inconclusive: 16.4 µM [cytotoxic, partial curve, poor fit] | –
CCCc1cc(C(=O)Nc2sc3c(c2C#N)CCC3)no1 | inconclusive: 32.6 µM [cytotoxic, partial curve, poor fit] | –
CC12CCC(C(=O)N(CSC(=S)N/N=C\c3ccccc3)C1=O)C2(C)C (configuration not stated) | inconclusive: 20.6 µM [cytotoxic, single point] | –
Cc1ccc(S(=O)(=O)c2nnn3c2nc(NCc2ccc4c(c2)OCO4)c2sccc23)cc1 | – | inactive: 2.84%
COc1ccc(N2c3ccccc3CN(Cc3ccccc3)[C@@H](C)[C@H]2Cc2cccnc2)cc1 | – | inactive: -1.08%
COc1cc(/C=N/O)cc(Br)c1OC | – | inactive: 19.7%
O=C(NCCc1ccccc1)c1ccc2nc(N3CCCCC3)sc2c1 | – | inactive: 2.7%
Cc1cccc(COCC(CC(C)C)N2CCN(C(=O)c3ccc(C(C)(C)C)cc3)CCC2=O)c1 (configuration not stated) | inconclusive: 20.6 µM [cytotoxic, single point] | –
Cc1ccc(C2=NOC(C)(c3nnc(-c4ccncc4)o3)C2)cc1 (configuration not stated) | – | inactive: 0%

Structure (SMILES) | Potency | activity change, negative = cytotoxic
O=C(NCCCNc1ccc(C(F)(F)F)cc1[N+](=O)[O-])c1cc(F)c(F)cc1Cl | inconclusive: 18.4 µM [cytotoxic, single point] | –
O=C1N/C(=C\c2ccc(O)cc2)C(O)=C1C=NCc1ccccc1 | inconclusive: 2.06 µM [cytotoxic, full curve, poor fit] | –
COc1cc(C(=S)N2CCOCC2)ccc1OS(=O)(=O)c1ccc(NC(C)=O)cc1 | inconclusive: 32.6 µM [cytotoxic, single point] | –
CC(=NNC(=S)SCc1ccccc1)c1ccccn1 | inconclusive: 20.6 µM [cytotoxic, single point] | –
Cc1ccc2oc(C(=O)N(Cc3ccc(N(C)C)cc3)CC3CCCO3)c(C)c2c1 (configuration not stated) | – | inactive: -17.9%
COC(=O)C1=C(C)N(Cc2ccccc2)C(=NCCc2c[nH]c3ccccc23)N[C@H]1c1cccc(F)c1 | inconclusive: 29.1 µM [cytotoxic, single point] | –
CC(C)(C)C1CCC(=NNc2ccc(S(N)(=O)=O)cc2[N+](=O)[O-])CC1 (configuration not stated) | inconclusive: 23.1 µM [cytotoxic, partial curve] | –
COc1ccc(/C=C/c2ccc3c(Br)ccc(O)c3n2)cc1 | inconclusive: 23.1 µM [cytotoxic, single point] | –
COc1ccc(NC(=O)CSCC(=O)N(C)Cc2ccc(Cl)c(Cl)c2)cc1 | – | inactive: 0.904%
O=C(N/C(=C/c1ccc(F)cc1)C(=O)N1CCCCC1)c1ccco1 | – | inconclusive: -0.575%
Cc1cnc(NC(=O)c2cc3c(s2)CCCC3)s1 | active: 20.6 µM | –
CC(NC(=O)C1CCN(S(=O)(=O)c2ccc(F)cc2)CC1)c1ccccc1 (configuration not stated) | – | inactive: 22.2%
Cc1ccc(-n2nc3c(N4CCC(C(=O)NCc5ccc(C)o5)CC4)nnc(C)c3c2C)cc1 | inconclusive: 16.4 µM [cytotoxic, partial curve, poor fit] | –
O=c1cc(N2CCN(c3ccccc3Cl)CC2)[nH]c(=O)n1Cc1ccc(F)cc1 | active: 4.61 µM | –
CCn1c(SCc2nc3ccccc3s2)nc2cc(S(=O)(=O)N3CCOCC3)ccc21 | – | inconclusive: -21.2%
COc1cccc(C(=O)Nc2nc3ccc(S(=O)(=O)N4CCCC4)cc3s2)c1 | active: 13 µM | –
O=C1CC(c2ccccc2)n2nc(NC(=O)c3ccccn3)nc2N1 (configuration not stated) | inconclusive: 29.1 µM [cytotoxic, single point] | –
Nc1nc(NCc2c(F)cccc2Cl)nn1-c1ccccc1 | inconclusive: 23.1 µM [cytotoxic, single point] | –
COc1ccc(NC(=O)COC(=O)CNS(=O)(=O)c2ccc(C)cc2)c(OC)c1 | – | inactive: 2.47%
COc1ccccc1C(CCN(Cc1ccccc1)C(C)=O)c1ccco1 (configuration not stated) | inconclusive: 23.1 µM [cytotoxic, single point] | –
COc1ccccc1/C=C/C(=O)Nc1cccc(S(=O)(=O)N2CCOCC2)c1 | – | inactive: 18.9%
Cc1ccc(NS(=O)(=O)c2ccc(-c3cnc(C4CC4)o3)cc2)cc1N(C)C | – | inactive: 0%
CCOC(=O)NC(=O)/C(C#N)=C(/C)N(C)C | – | inactive: 4.84%
N=c1n(CCCOc2ccccc2Cl)c2ccccc2n1CC(N)=O | inconclusive: 29.1 µM [cytotoxic, single point] | –

Structure (SMILES) | Potency | activity change, negative = cytotoxic
O=C1CSC2(C(=O)N(Cc3ccccc3F)c3ccccc32)N1c1cccc(C(F)(F)F)c1 (configuration not stated) | active: 18.4 µM | –
CC[n+]1c(/C=C/N(C)c2ccccc2)oc2ccc(F)cc21 | active: 5.8 µM | –
CC(=O)N1CCN(S(=O)(=O)c2cccc(C(=O)NNC(=O)COc3c(C)cccc3C)c2)CC1 | inconclusive: 5.8 µM [rising, partial curve] | –
CCCNC(=O)C1CCC(Cn2c(=O)c3sccc3n(CC(=O)NCc3ccccc3)c2=O)CC1 (configuration not stated) | – | inactive: 2.11%
COc1ccccc1Oc1ccc2c(c1)C(=O)N(c1ccc(C)cc1)C2=O | inconclusive: 1.16 µM [rising, partial curve, poor fit] | –
Cc1nc2ccc(NS(=O)(=O)c3c(C)c(C)cc(C)c3C)cc2s1 | inconclusive: 20.6 µM [cytotoxic, single point] | –
CC(C)C(c1nnnn1Cc1ccccc1)N(Cc1ccco1)Cc1cccs1 (configuration not stated) | inconclusive: 32.6 µM [cytotoxic, single point] | –
O=C(CNC(=O)c1ccc(F)cc1)N/N=C/c1cc(Br)ccc1OC(=O)/C=C/c1ccco1 | inconclusive: 29.1 µM [cytotoxic, single point] | –
Cc1ccc(S(=O)(=O)/C(C#N)=C/c2ccccc2OCc2ccccc2)cc1 | inconclusive: 23.1 µM [cytotoxic, single point] | –
Cc1ccc(C(=O)Nc2ccc(Cl)cc2C)c(Cl)c1 | – | inactive: -8.21%
O=C1CCc2ccccc2O1 | – | inactive: 1.19%
CCC(C)NS(=O)(=O)c1cc2c3c(c1)CCN3C(=O)CC2 (configuration not stated) | – | inactive: 0.543%
CCCCN(CC)CCNC(=O)c1cc2c(=O)n(C)c3ccccc3c2n1C | inconclusive: 0.411 µM [cytotoxic, full curve, poor fit] | –
OC(Cc1ccccc1)c1ncc(-c2ccc(Cl)cc2)[nH]1 (configuration not stated) | inconclusive: 18.4 µM [cytotoxic, single point] | –
COc1ccc(OC)c(CNS(=O)(=O)c2ccc3c(c2)oc(=O)n3C)c1 | – | inactive: 14.7%
COc1ccc(-c2nc3ccccc3o2)cc1NC(=O)COc1ccc(C)c(C)c1 | active: 5.8 µM | –
COc1ccc(S(=O)(=O)N2CCc3cc4c(cc3C2C)OCCCO4)cc1 (configuration not stated) | – | inactive: 3.48%
C=C(C)Cn1c(SCC)nc2ccccc2c1=O | inconclusive: 11.6 µM [rising, partial curve] | –
COc1ccc(-n2c(C)nc3c(cnn3-c3ccccc3)c2=O)cc1 | inconclusive: 23.1 µM [cytotoxic, partial curve] | –
O=C(Nc1ccc(OC(F)(F)F)cc1)C1CCCN(C(=O)c2ccc(Cl)cc2)C1 (configuration not stated) | inconclusive: 29.1 µM [cytotoxic, single point] | –
CC(=O)N1c2ccc(S(=O)(=O)N3CCC(C(=O)Nc4cccc(Cl)c4C)CC3)cc2CC1C (configuration not stated) | inconclusive: 29.1 µM [cytotoxic, single point] | –
CCOC(=O)Nc1ccc2c(c1)nc(CN1CCOCC1)n2C | – | inactive: 11.5%
COc1ccc(Nc2nc(-c3cccc([N+](=O)[O-])c3)nc3ccccc23)cc1 | inconclusive: 29.1 µM [cytotoxic, single point] | –
